One test addresses ataxin-7-10Q (wild type) (UniProt O15265). Briefly: co-IP; HEK293T whole cell lysates (500 ug, MPER) of cells expressing HDAC3 and ataxin-7-10Q or ataxin-7-92Q; immunoprecipitation with anti-ataxin-7 (PA1-749) on Protein G Sepharose, overnight at 4°C; blot with anti-HDAC3 (N-19).
For the next test, the target named is Histone deacetylase-3 (UniProt O15379). Briefly: co-IP; reverse: HEK293T whole cell lysates (500 ug, MPER); immunoprecipitation with anti-HDAC3 (B-12, sc-17795) on Protein G Sepharose, overnight at 4°C; blot with anti-ataxin-7 (K).

Protein sequences, listed by entry. Tags and fused reporters are not part of them.
UniProt O15265: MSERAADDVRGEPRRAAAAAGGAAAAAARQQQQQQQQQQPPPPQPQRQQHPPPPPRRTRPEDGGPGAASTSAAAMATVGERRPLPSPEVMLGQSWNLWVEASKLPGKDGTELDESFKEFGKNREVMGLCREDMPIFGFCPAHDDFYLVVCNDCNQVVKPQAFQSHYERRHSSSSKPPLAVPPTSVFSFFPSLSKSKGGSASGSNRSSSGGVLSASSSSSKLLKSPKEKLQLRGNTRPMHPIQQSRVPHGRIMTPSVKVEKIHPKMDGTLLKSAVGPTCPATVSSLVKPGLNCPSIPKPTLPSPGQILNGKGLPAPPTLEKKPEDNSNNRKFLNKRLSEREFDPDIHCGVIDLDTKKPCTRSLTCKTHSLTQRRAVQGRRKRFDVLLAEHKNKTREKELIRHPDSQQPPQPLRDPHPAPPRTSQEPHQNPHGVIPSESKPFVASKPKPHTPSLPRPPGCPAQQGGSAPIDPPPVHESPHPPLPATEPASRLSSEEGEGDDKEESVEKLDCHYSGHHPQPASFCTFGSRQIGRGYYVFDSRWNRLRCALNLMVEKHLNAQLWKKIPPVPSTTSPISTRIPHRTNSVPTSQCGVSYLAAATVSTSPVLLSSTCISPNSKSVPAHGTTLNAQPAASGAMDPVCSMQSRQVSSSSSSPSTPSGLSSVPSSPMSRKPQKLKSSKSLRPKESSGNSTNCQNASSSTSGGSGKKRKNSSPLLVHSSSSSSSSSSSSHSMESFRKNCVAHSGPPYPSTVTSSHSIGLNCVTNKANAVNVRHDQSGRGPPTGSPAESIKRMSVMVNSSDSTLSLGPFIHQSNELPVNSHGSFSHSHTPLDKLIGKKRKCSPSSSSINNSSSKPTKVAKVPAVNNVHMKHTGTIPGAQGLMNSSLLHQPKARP
UniProt O15379: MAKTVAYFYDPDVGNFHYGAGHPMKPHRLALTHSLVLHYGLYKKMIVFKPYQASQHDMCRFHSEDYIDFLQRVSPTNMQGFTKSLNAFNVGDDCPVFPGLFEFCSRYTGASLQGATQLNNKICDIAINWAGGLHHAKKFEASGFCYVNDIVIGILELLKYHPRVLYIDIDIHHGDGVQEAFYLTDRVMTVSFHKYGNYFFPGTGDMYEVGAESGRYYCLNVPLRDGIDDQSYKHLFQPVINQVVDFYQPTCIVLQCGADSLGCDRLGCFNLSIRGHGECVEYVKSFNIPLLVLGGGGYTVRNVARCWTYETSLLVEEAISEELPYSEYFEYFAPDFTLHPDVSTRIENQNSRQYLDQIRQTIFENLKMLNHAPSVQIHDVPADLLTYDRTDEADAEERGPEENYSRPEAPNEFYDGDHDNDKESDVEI

Results are given in words; binding and its absence hold for the method and conditions named. In cells and extracts the contact can be indirect. Some entries that bind do so weakly or less than the wild type.

For the substance “Histone deacetylase-3 (from UniProt O15379 1-428) (enzyme)”, the binding result in the test with ataxin-7-10Q (wild type) is on record as “binds”.

In the case of “ataxin-7-10Q (wild type) (from UniProt O15265 1-892)”, the binding entry with Histone deacetylase-3 is given as “binds”.

Values taken from publication PMC3816305.
